Results taken from US20210363217A1.
Substitutions are numbered along the chain they refer to. No constants are given. Whether binding was seen depends on the method and setting. Some results given as binding are weak or reduced against the parent protein; the word gives no strength.

B1: Nsa1 FN3 based monobody (designed binder)
chain: SSVPTKLEVVAATPTSLLISWDAPAVTVDYYVITYGETGSGGYAWQEFEVPGSKSTATISGLKPGVDYTITVYAGYYGYPTYYSSPISINYRT
B2: Nsa2 FN3 based monobody (designed binder)
chain: SSVPTKLEVVAATPTSLLISWDAPAVTVDYYVITYGETGYYAYFQEFEVPGSKSTATISGLKPGVDYTITVYAGYYGYYGSPISINYRT
B3: Nsa4 FN3 based monobody (designed binder)
chain: B2 chain with S81N
B4: Nsa5 FN3 based monobody (designed binder)
chain: B2 chain with Y30F, Y41F, A42S, Y43G
B5: Cs1 FN3 based monobody (designed binder)
chain: B1 chain with S40Y, G41W, G42P, A44Y, Y76S, G78D, Y79S, P80Y, T81Y, S84G
B6: Cs3 FN3 based monobody (designed binder)
chain: SSVPTKLEVVAATPTSLLISWDAPAVTVDYYVITYGETGHWPWVWQEFEVPGSKSTATISGLKPGVDYTITVYAGSYSSYYYYGSPISINYRT
B7: Cs4 FN3 based monobody (designed binder)
chain: B6 chain with H40Y, W43Y, V44Y, S76H, S78N, Y83S, G84Y

Each binder was assayed on T1, N terminal SH2 domain of SHP2 (Mus musculus (Mouse)) (UniProt P35235) (assay: ELISA).
T1 sequence: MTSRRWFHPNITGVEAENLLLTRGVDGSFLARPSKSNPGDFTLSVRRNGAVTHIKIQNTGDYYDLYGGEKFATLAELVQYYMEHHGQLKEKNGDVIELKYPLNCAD

binding	Binder
binds	B1
binds	B2
binds	B3
binds	B4

These binders were tested on T2, C terminal SH2 domain of SHP2 (Mus musculus (Mouse)) (UniProt P35235) (assay: ELISA).
T2 sequence: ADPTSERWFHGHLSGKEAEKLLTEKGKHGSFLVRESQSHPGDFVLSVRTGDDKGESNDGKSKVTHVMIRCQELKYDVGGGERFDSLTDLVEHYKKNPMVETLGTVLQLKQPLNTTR

binding	Binder
binds	B5
binds	B6
binds	B7
